Measurements as given in PubChem BioAssay AID1487 (National Center for Advancing Translational Sciences (NCATS), 2009).
Some of the results follow. Shown are side measurements of this screen, not its main read-out; they come without a call. The list favours compounds with an active or inconclusive main result. Potencies come from curve fits of mixed quality, noted in brackets.

Assay: qHTS Assay for Modulators of Lamin A Splicing
Details: HeLa LMNA splicing GFP/RFP minigene ratio, 48 h
Outline: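 Read-out is the ratio of GFP to DsRed2 object intensity, acquired by 488 nm laser-scanning cytometry on HeLa lamin A-EGFP minigene reporter cells. Compound incubation 48 hrs at 37 °C in Opti-MEM with 2% FBS; DMSO 0.5% final.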

[1] = measured here: GFP splicing reporter channel
[2] = measured here: RFP viability control channel

Row | SMILES | AC50 [1] | AC50 [2]
1 | CN(C)Cc1ccccc1-c1nc(N(C)Cc2ccco2)c2ccccc2n1 | 35.5 µM [rising, single point] | 25.1 µM [rising, single point]
2 | C=CCn1cc(C(=O)NCc2ccc3c(c2)OCO3)c(=O)c2cc(S(=O)(=O)N(CC)CC)ccc21 | 8.91 µM [rising, partial curve] | 
3 | O=C(NCc1ccccn1)c1cc(-c2ccc(Br)cc2)nc2ccccc12 |  | 35.5 µM [rising, single point]
4 | CC(=O)c1c(C)n([O-])c2cc(C)ccc2[n+]1=O |  | 6.31 µM [rising, single point]
5 | O=C(CCCN1C(=O)/C(=C/c2ccccc2Cl)SC1=S)Nc1ccccn1 | 1.26 µM [falling, partial curve, poor fit] | 8.91 µM [rising, partial curve]
6 | C=C(C)c1cccc(C(C)(C)NC(=O)N2CCN(c3ccccc3OC)CC2)c1 |  | 14.1 µM [rising, single point]
7 | COc1ccc(C(=O)NC(=S)Nc2ccc(Cc3ccncc3)cc2)cc1 |  | 35.5 µM [rising, single point]
8 | N#C/C(=C\c1ccccc1)C(=O)Nc1cc(S(=O)(=O)N2CCOCC2)ccc1N1CCCC1 |  | 5.01 µM [rising, single point]
9 | CC(Sc1nc2ccccc2s1)C(=O)N1CCOCC1 (configuration not stated) |  | 35.5 µM [rising, single point]
10 | CCn1c(CCNC(=O)c2cccs2)n[nH]c1=S | 0.398 µM [falling, full curve] | 0.0891 µM [falling, full curve, poor fit]
11 | O=C1NN(c2ccc(F)cc2)C(=O)/C1=C/c1cccs1 | 0.708 µM [rising, partial curve] | 
12 | COc1ccccc1Nc1ncc2c(n1)CCN(Cc1cc(F)cc(F)c1)C2 |  | 2.24 µM [rising, single point]
13 | Cc1cc(C)c(NC(=O)CSc2nc(=O)n(Cc3cccnc3)c3c2CCC3)c(C)c1 |  | 0.0282 µM [falling, full curve]
14 | COc1cccc(NC(=O)C(c2ccccc2)N2CCNC(=O)C2)c1 (configuration not stated) | 2.82 µM [falling, single point] | 
15 | O=C(CSc1nc2ccccc2n1CC(=O)N1CCCC1)NCc1ccc2c(c1)OCO2 | 4.47 µM [rising, single point] | 5.62 µM [rising, single point]
16 | CCOc1ccc(N2C(=O)C3C(c4ccccc4F)NN(C(=O)c4ccc(C)cc4)C3C2=O)cc1 (configuration not stated) | 0.141 µM [falling, full curve, poor fit] | 
17 | Cc1cc(C(=S)N2CCOCC2)c(C)n1-c1ccc(Cl)cc1 |  | 35.5 µM [rising, single point]
18 | COc1cc(C)c(C(=O)Oc2cc(C)c(C(=O)O)c(O)c2C)c(OC)c1C | 14.1 µM [rising, single point] | 
19 | CC(=O)N1CCc2cc(Br)cc(S(=O)(=O)NCCc3cccc(C)c3)c21 | 7.08 µM [falling, partial curve, poor fit] | 14.1 µM [falling, partial curve, poor fit]

Row | SMILES | AC50 [1] | AC50 [2]
20 | C/C(=N\NC(=O)C(c1ccncc1)N1CCOCC1)c1ccc(Br)cc1 (configuration not stated) | 0.1 µM [falling, full curve] | 
21 | CC1(C)CC(=O)C=C(NC2=CC3OC(c4ccccc4)OCC3OC2=O)C1 (configuration not stated) | 22.4 µM [rising, partial curve, poor fit] | 22.4 µM [rising, partial curve]
22 | CCNC(=O)c1cc(Cl)ccc1OC | 0.316 µM [rising, full curve, poor fit] | 0.251 µM [rising, full curve, poor fit]
23 | N#C/C(=N\Nc1cc(Cl)cc(Cl)c1)c1nnc2n1CCCCC2 |  | 31.6 µM [rising, single point]
24 | COc1cccc(-n2c(CN3CCN(c4ccccc4)CC3)nc3ccc([N+](=O)[O-])cc3c2=O)c1 |  | 15.8 µM [rising, partial curve]
25 | O=C(CSc1nnc(COc2ccc(F)cc2)o1)N1c2ccccc2CCc2ccccc21 | 10 µM [rising, partial curve] | 15.8 µM [rising, partial curve]
26 | O=C(Nc1ccc(Cl)cc1)N1CCC(c2nc(-c3cccs3)no2)CC1 | 25.1 µM [rising, single point] | 25.1 µM [rising, single point]
27 | COc1ccc(-n2c(SCC(=O)NCCC(C)C)nc3ccsc3c2=O)cc1 | 3.98 µM [rising, single point] | 5.62 µM [rising, single point]
28 | CCN(CC)c1ccc(NC(=O)c2cc(OC)cc(OC)c2)c(C)c1 | 1.26 µM [rising, single point] | 0.794 µM [rising, full curve, poor fit]
29 | CCNc1ncc2ncc(=O)n(Cc3ccc(F)cc3)c2n1 | 14.1 µM [falling, partial curve] | 
30 | CS(=O)(=O)c1ccc2nc(NC(=O)c3cc4ccccc4o3)sc2c1 |  | 12.6 µM [rising, single point]
31 | O=C(Nc1nc2ccccc2s1)c1ccc(OCC2CCCO2)cc1 (configuration not stated) | 14.1 µM [rising, single point] | 17.8 µM [rising, partial curve]
32 | Cc1cc(NC(=O)C2CCN(S(=O)(=O)c3cccs3)CC2)no1 |  | 2.51 µM [rising, single point]
33 | O=C1NCC2(CCN(CCc3ccccc3)CC2)O1 |  | 0.00355 µM [falling, full curve, poor fit]
34 | CCOc1ccccc1NC1=C(Cl)C(=O)N(Cc2ccccc2)C1=O | 10 µM [falling, single point] | 
35 | CSc1ncc(Cl)c(C(=O)C(C#N)c2nc3c(C)cc(C)cc3c(=O)[nH]2)n1 (configuration not stated) |  | 35.5 µM [rising, single point]
36 | CCCSc1ncc(Cl)c(C(=O)Nc2ccc(S(=O)(=O)N3CC(C)OC(C)C3)cc2)n1 (configuration not stated) | 35.5 µM [rising, single point] | 31.6 µM [rising, single point]
37 | CCn1nnc(-c2ccc(N)cc2)n1 |  | 5.01 µM [falling, single point]
38 | CCOc1cc(/C=C2/C(=O)ON=C2C)ccc1OCc1ccccc1F | 25.1 µM [falling, single point] | 12.6 µM [falling, partial curve]

Reformatted: results already given.

| Row | SMILES | AC50 [1] | AC50 [2] |
| --- | --- | --- | --- |
| 28 | CCN(CC)c1ccc(NC(=O)c2cc(OC)cc(OC)c2)c(C)c1 | 1.26 µM [rising, single point] | 0.794 µM [rising, full curve, poor fit] |
| 29 | CCNc1ncc2ncc(=O)n(Cc3ccc(F)cc3)c2n1 | 14.1 µM [falling, partial curve] |  |
| 30 | CS(=O)(=O)c1ccc2nc(NC(=O)c3cc4ccccc4o3)sc2c1 |  | 12.6 µM [rising, single point] |

(more compounds)

Row | SMILES | AC50 [1] | AC50 [2]
39 | CCOc1cccc2sc(Nc3nc4ccc(NC(C)=O)cc4s3)nc12 | 12.6 µM [rising, partial curve] | 22.4 µM [rising, partial curve, poor fit]
40 | O=C(Nn1cnnc1)C1CCCN1S(=O)(=O)c1ccc(F)cc1 (configuration not stated) | 0.0158 µM [falling, full curve, poor fit] | 0.02 µM [falling, full curve, poor fit]
41 | CCC(=O)N1c2ccccc2CC1C(=O)NCc1ccccc1C (configuration not stated) |  | 5.01 µM [rising, partial curve]
42 | COc1ccc(OC)c(NC(=S)N(CCc2c(C)[nH]c3ccc(C)cc23)Cc2cccs2)c1 |  | 0.891 µM [rising, full curve]
43 | Cc1ccccc1NC(=S)NNC(=O)c1csc2c1CCC(C)C2 (configuration not stated) |  | 35.5 µM [rising, single point]
44 | CNc1nc(Oc2ccc(=O)n(C)n2)nc(N2CCOCC2)n1 | 35.5 µM [falling, single point] | 22.4 µM [falling, partial curve, poor fit]
45 | CCCC(C)C(=O)Nc1ccc(F)c(Cl)c1 (configuration not stated) | 6.31 µM [falling, single point] | 
46 | O=C(COc1cccnc1[N+](=O)[O-])NCc1ccco1 |  | 0.0224 µM [rising, full curve, poor fit]
47 | Cc1nc(-c2ccccc2)sc1-c1nc(-c2cccnc2)ncc1S(=O)(=O)c1ccccc1 | 14.1 µM [rising, single point] | 14.1 µM [rising, single point]
48 | O=C(NCc1ccc(F)cc1)C(c1cccs1)N(C(=O)c1csnn1)C1CC1 (configuration not stated) | 17.8 µM [rising, single point] | 
49 | CCn1c(CSc2nncn2-c2ccc(OC)cc2)nc2cc(S(=O)(=O)N(C)C)ccc21 |  | 8.91 µM [rising, partial curve, poor fit]
50 | CN(C)NC(=S)NC(=O)C12CC3CC(CC(C3)C1)C2 |  | 1.12 µM [rising, full curve]
51 | COc1ccc(-n2nc([N+](=O)[O-])c(=NCCC3=CCCCC3)n2O)cc1 |  | 17.8 µM [rising, partial curve, poor fit]
52 | O=c1nc(N/N=C/c2ccccn2)cn[nH]1 |  | 11.2 µM [rising, partial curve]
53 | NC[C@@H]1O[C@H](C23CC4CC(CC(C4)C2)C3)Cc2c1ccc(O)c2O | 12.6 µM [falling, partial curve] | 11.2 µM [falling, partial curve]
54 | Cc1ccc(SCc2[nH]nc3c2C(c2ccc(C)o2)C(C#N)=C(N)O3)cc1 (configuration not stated) | 25.1 µM [falling, single point] | 25.1 µM [falling, single point]
55 | CCCC(=O)NC(c1ccccc1OC)c1ccc2cccnc2c1O (configuration not stated) | 2.51 µM [falling, full curve] | 4.47 µM [falling, partial curve]
56 | Cc1nn(C)c(Cl)c1S(=O)(=O)N[C@@H](c1ccccc1)[C@]1(C)C[C@H]1[C@@H](C)C(=O)Nc1ccc2ccccc2c1 |  | 10 µM [rising, partial curve]
